# Percent effect of library compounds

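Assay of Toxoplasma gondii numbers, read through their beta-galactosidase reporter with a colour substrate. Concentration: 50 µM. The record gives no direction; the compounds picked for IC50 retests had high values, so higher reads as fewer parasites. Size under these conditions: about 18,000 compounds, about 170 of them at 50% or above in at least one test.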

Values are the deposited “Percent Effect”, in %.
The record does not define 0% and 100%; most values in the screen are far below 50% and negative numbers occur (in some assays of this library far below -100).
The compounds are a random part of those screened.

{"compound": "C[C@H](N)c1ccc(Cl)s1", "Percent Effect": 6.702}
{"compound": "CC1(C)CCCN1C(=O)NCCCNC(=O)C1CCC1", "Percent Effect": -2.299}
{"compound": "O=C(c1ccc(OC(F)(F)F)cc1)N1CCC(O)CC1", "Percent Effect": -20.4}
{"compound": "O=C1CC(CNc2ncccn2)c2ccccc2N1", "stereo": "stereo not given", "Percent Effect": -1.294}
{"compound": "O=C(c1ccccc1Br)N1CCOCC1", "Percent Effect": -2.51}
{"compound": "CCCc1cc(C(=O)NC(CC)c2nc(C)c[nH]2)[nH]n1", "stereo": "stereo not given", "Percent Effect": 1.036}
{"compound": "CN1CCN(C(=O)c2cc3ccccc3o2)CC1", "Percent Effect": -0.4798}
{"compound": "CCn1ccc(C(=O)NCCSC(F)(F)F)cc1=O", "Percent Effect": -1.758}
{"compound": "COc1ccc(C2CNCCO2)cc1", "stereo": "stereo not given", "Percent Effect": 0.9223}
{"compound": "CNCc1ccoc1", "Percent Effect": 5.184}
{"compound": "Cc1n[nH]c(SCc2nc(-c3ccccn3)no2)n1", "Percent Effect": -17.9}
{"compound": "O=C(NCc1cccnc1)NCc1cc[nH]n1", "Percent Effect": 5.963}
{"compound": "CCNC(=O)CNc1ccnc2cc(F)ccc12", "Percent Effect": -1.472}
{"compound": "CCOC(=O)CNC(=O)NC(C)c1ccccn1", "stereo": "stereo not given", "Percent Effect": 9.248}
{"compound": "CNC(=O)CN1CCC(c2ccccc2)CC1", "Percent Effect": 36.87}
{"compound": "CC1CN(C(=O)c2cc(Cl)c3c(c2)OCO3)CCO1", "stereo": "stereo not given", "Percent Effect": 2.834}
{"compound": "CCCOc1ccc(NS(=O)(=O)N(C)C)cc1Cl", "Percent Effect": 32.87}
{"compound": "COc1cccc(CO)c1C", "Percent Effect": -13.36}
{"compound": "Cc1c[nH]c(CN(C)C(=O)CCCN2CCCC2=O)n1", "Percent Effect": -0.535}
{"compound": "CC(C)Oc1ccc(CNC(=O)N2CCCC2)cn1", "Percent Effect": 0.9806}
{"compound": "CN(C)C(CNC(=O)c1ccccn1)c1ccsc1", "stereo": "stereo not given", "Percent Effect": -5.201}
{"compound": "NC(CO)c1nc2ccccc2[nH]1", "stereo": "stereo not given", "Percent Effect": 5.734}
{"compound": "Cc1ccc(C(=O)N2CCN(C)CC2C)c(C)c1", "stereo": "stereo not given", "Percent Effect": -0.7744}
{"compound": "O=C(Nc1c[nH]nc1C1CCCNC1)C1CCCC1", "stereo": "stereo not given", "Percent Effect": -7.447}
{"compound": "[H][C@](N)(CO)c1ccccc1", "Percent Effect": 0.4618}
{"compound": "CC(C)C(NC(=O)C1=COCCO1)c1ccccc1", "stereo": "stereo not given", "Percent Effect": -7.115}
{"compound": "Cc1ccc2c(c1)OC(C)CN2S(C)(=O)=O", "stereo": "stereo not given", "Percent Effect": 16.91}
{"compound": "Cc1c(C(=O)N2C[C@@H](CN(C)C)[C@@H](CO)C2)cnn1C", "Percent Effect": 0.9383}
{"compound": "CCOCCN1CCCC(CNS(C)(=O)=O)C1", "stereo": "stereo not given", "Percent Effect": -7.775}
{"compound": "NCCC(=O)NC1CCS(=O)(=O)C1", "stereo": "stereo not given", "Percent Effect": -2.799}
{"compound": "Nc1cncc(CO)n1", "Percent Effect": -5.214}
{"compound": "CCC(C)C(=O)N1CCN(C(=O)c2ccoc2C)CC1", "stereo": "stereo not given", "Percent Effect": -3.139}
{"compound": "Cn1ccnc1C1CCN(C(=O)[C@H]2CCCN2)CC1", "Percent Effect": -7.851}
{"compound": "CN(C)c1ccccc1C(=O)N1C[C@H](C2CC2)[C@@H](N)C1", "Percent Effect": -3.134}
{"compound": "CCS(=O)(=O)c1ccc(C(C)N)cc1", "stereo": "stereo not given", "Percent Effect": -5.32}
{"compound": "CCOc1ccc(NC(=O)NC2CCN(C)CC2)cc1", "Percent Effect": 1.279}
{"compound": "CSc1cccc(CN(C)C(=O)CC2COCCN2)c1", "stereo": "stereo not given", "Percent Effect": 2.981}
{"compound": "CN(C)c1ccc(CNC(=O)OCC(F)(F)F)cn1", "Percent Effect": -13.59}
{"compound": "CCSc1cc(C(=O)N2CC[S+]([O-])CC2)ccn1", "Percent Effect": 18.59}
{"compound": "CC(C)C(=O)NC1CCN(C(=O)c2ccccc2)CC1", "Percent Effect": -0.8368}
{"compound": "COCCC(NC(=O)NCc1ccccn1)C(C)(C)C", "stereo": "stereo not given", "Percent Effect": -3.06}
{"compound": "Cc1ncsc1C(=O)NC(C)C(C)C", "stereo": "stereo not given", "Percent Effect": -3.677}
{"compound": "Cn1nc(N)cc1C(=O)N1CCOCC1", "Percent Effect": 9.241}
{"compound": "COc1cc(OC)cc(-c2[nH][nH]c(=O)c2CCN)c1", "Percent Effect": 38.2}
{"compound": "CCOC(=O)Cc1csc(NC(=O)c2ccccn2)n1", "Percent Effect": -5.147}
{"compound": "CCO[C@H]1CN(c2ncc(F)cn2)C[C@@H]1O", "Percent Effect": 3.051}
{"compound": "CCNS(=O)(=O)C1CCN(c2ccc(C#N)nc2)C1", "stereo": "stereo not given", "Percent Effect": 6.814}
{"compound": "CN(C)CCN(C)S(=O)(=O)CCCC#N", "Percent Effect": -7.729}
{"compound": "CCCn1ncc(CN2CCC(COC)C2)c1C", "stereo": "stereo not given", "Percent Effect": -7.599}
{"compound": "CNC(=O)C1(c2ccccc2)CCN(C(C)=O)CC1", "Percent Effect": -7.004}
{"compound": "NCc1cccc(-c2nc(-c3ccncc3)no2)c1", "Percent Effect": -1.867}
{"compound": "CCCS(=O)(=O)N1C[C@@H](CN(C)C)[C@@H](CO)C1", "Percent Effect": 13.35}
{"compound": "CC(Cn1cncn1)NC(=O)CCOc1ccccc1", "stereo": "stereo not given", "Percent Effect": 12.94}
{"compound": "CN(C)CCNC(=O)CCC(=O)Nc1ccc(Cl)cc1", "Percent Effect": -9.51}
{"compound": "CCN(CC)C(=O)NCC[S+]([O-])C(C)(C)C", "stereo": "stereo not given", "Percent Effect": -8.865}
{"compound": "CN(C)CCN(C)c1cc(C2CC(O)C2)ncn1", "stereo": "stereo not given", "Percent Effect": 16.13}

Once more, the final 7:

compound,Percent Effect
CNC(=O)C1(c2ccccc2)CCN(C(C)=O)CC1,-7.004
NCc1cccc(-c2nc(-c3ccncc3)no2)c1,-1.867
CCCS(=O)(=O)N1C[C@@H](CN(C)C)[C@@H](CO)C1,13.35
CC(Cn1cncn1)NC(=O)CCOc1ccccc1 (stereo not given),12.94
CN(C)CCNC(=O)CCC(=O)Nc1ccc(Cl)cc1,-9.51
CCN(CC)C(=O)NCC[S+]([O-])C(C)(C)C (stereo not given),-8.865
CN(C)CCN(C)c1cc(C2CC(O)C2)ncn1 (stereo not given),16.13

From ChEMBL document CHEMBL3988442, “University of Dundee, Small-Polar-MMV Screening Library” (2021).